Some results were stated once for a whole list of compounds, not compound by compound. For part of these data: The name of at least one read-out is uncertain. Some ranges recur; such a range may be that of the whole group of compounds.
Key:
Assay type in all cases: in vivo
[1] = test system: Tetranychus urticae; test: Test Example 8: Tetranychus urticae, spray on bean plant; conditions: 500 ppm test solution, 20 mL sprayed on bean plant; after 8 days
[2] = test system: Musca domestica; test: Test Example 5: Musca domestica, filter paper with sucrose bait; conditions: 500 ppm test solution, 0.7 ml on filter paper; female imagoes; after 24 hours
[3] = test system: Plutella xylostella; test: Test Example 9: Plutella xylostella, spray on cabbage; conditions: 500 ppm test solution, 20 mL sprayed on cabbage; second-instar larvae; 25° C.; after 5 days
[4] = test system: Nilaparvata lugens; test: Test Example 4: Nilaparvata lugens, spray on rice plant; conditions: 500 ppm test solution, 20 mL/pot sprayed on rice; first-instar larvae; after 6 days
[5] = test system: Culex pipiens pallens; test: Test Example 7: Culex pipiens pallens larvae in treated water; conditions: active ingredient concentration 3.5 ppm in water; last-instar larvae; after 1 day
[6] = test system: Adoxophyes orana; test: Test Example 2: Adoxophyes orana, artificial diet/filter paper test; conditions: 500 ppm test solution, 1 mL; first-instar larvae; after 7 days
[7] = test system: Aphis gossypii; test: Test Example 3: Aphis gossypii, spray on cucumber leaves; conditions: 500 ppm test solution, 20 mL sprayed on cucumber; imagoes and larvae; after 6 days
[8] = test system: Spodoptera litura; test: Test Example 1: Spodoptera litura, artificial diet/filter paper test; conditions: 500 ppm test solution, 2 mL; fourth-instar larvae; after 6 days
[9] = test system: Blattalla germanica; test: Test Example 6: Blattalla germanica, filter paper with sucrose bait; conditions: 500 ppm test solution, 0.7 ml on filter paper; male imagoes; after 6 days

| Compound | index in terms of the surviving number (female imagoes) [1] | index in terms of death rate [2] | index in terms of death rate [3] | index in terms of survival rate [4] | index in terms of death rate [5] | index in terms of death rate [6] | index in terms of survival rate [7] | index in terms of death rate [8] | index in terms of death rate [9] |
| --- | --- | --- | --- | --- | --- | --- | --- | --- | --- |
| COc1ccc(OC=C(C)C(=Nc2ccccc2)Oc2cccc(C)c2)cc1 [Compound 263, 3-methylphenyl 3-(4-methoxyphenyloxy)-2-methyl-N-phenyl-2-propenimidate] | 3 (index 3: 4 to 10) | 3 (3: 70 to 99%) | 3 (3: 80 to 99%) | 3 (3: 1 to 10%) | 4 (4: 91 to 100%) | 3 (3: 80 to 99%) | 3 (3: 1 to 10%) | 3 (3: 80 to 99%) | 4 (4: 100%) |
| COc1ccc(OC=C(C)C(=Nc2ccc(C)cc2)Oc2cccc(C)c2)cc1 [Compound 270, 3-methylphenyl 3-(4-methoxyphenyloxy)-2-methyl-N-(4-methylphenyl)-2-propenimidate] | 3 (index 3: 4 to 10) | 3 (3: 70 to 99%) | 3 (3: 80 to 99%) | 3 (3: 1 to 10%) | 4 (4: 91 to 100%) | 3 (3: 80 to 99%) | 3 (3: 1 to 10%) | 3 (3: 80 to 99%) | 4 (4: 100%) |
| CCc1cccc(OC(=Nc2ccc(C)cc2)C(C)=COc2ccc(OC)cc2)c1 [Compound 272, 3-ethylphenyl 3-(4-methoxyphenyloxy)-2-methyl-N-(4-methylphenyl)-2-propenimidate] | 3 (index 3: 4 to 10) | 3 (3: 70 to 99%) | 3 (3: 80 to 99%) | 3 (3: 1 to 10%) | 4 (4: 91 to 100%) | 3 (3: 80 to 99%) | 3 (3: 1 to 10%) | 3 (3: 80 to 99%) | 4 (4: 100%) |
| CC(=COc1ccc(C)c(C)c1)C(=Nc1ccccc1)Oc1ccccc1 [Compound 292, phenyl 3-(3,4-dimethylphenyloxy)-2-methyl-N-phenyl-2-propenimidate] | 3 (index 3: 4 to 10) | 3 (3: 70 to 99%) | 3 (3: 80 to 99%) | 3 (3: 1 to 10%) | 4 (4: 91 to 100%) | 3 (3: 80 to 99%) | 3 (3: 1 to 10%) | 3 (3: 80 to 99%) | 4 (4: 100%) |
| CCC(=COc1ccccc1)C(=Nc1ccccc1)Sc1ccccc1 [Compound 300, phenyl 2-ethyl-3-phenoxy-N-phenyl-2-propenimidothioate] | 3 (index 3: 4 to 10) | 3 (3: 70 to 99%) | 3 (3: 80 to 99%) | 3 (3: 1 to 10%) | 4 (4: 91 to 100%) | 3 (3: 80 to 99%) | 3 (3: 1 to 10%) | 3 (3: 80 to 99%) | 4 (4: 100%) |
| CCC(=COc1ccccc1)C(=Nc1ccccc1)Oc1ccccc1 [Compound 301, phenyl 2-ethyl-3-phenoxy-N-phenyl-2-propenimidate] | 3 (index 3: 4 to 10) | 3 (3: 70 to 99%) | 3 (3: 80 to 99%) | 3 (3: 1 to 10%) | 4 (4: 91 to 100%) | 3 (3: 80 to 99%) | 3 (3: 1 to 10%) | 3 (3: 80 to 99%) | 4 (4: 100%) |
| CCC(=COc1ccc(C)cc1)C(=Nc1ccccc1)Oc1cccc(C)c1 [Compound 310, 3-methylphenyl 2-ethyl-3-(4-methylphenyloxy)-N-phenyl-2-propenimidate] | 3 (index 3: 4 to 10) | 3 (3: 70 to 99%) | 3 (3: 80 to 99%) | 3 (3: 1 to 10%) | 4 (4: 91 to 100%) | 3 (3: 80 to 99%) | 3 (3: 1 to 10%) | 3 (3: 80 to 99%) | 4 (4: 100%) |
| CCC(=COc1ccc(C)cc1)C(=Nc1ccc(C)cc1)Oc1cccc(C)c1 [Compound 312, 3-methylphenyl 2-ethyl-N-(4-methylphenyl)-3-(4-methylphenyloxy)-2-propenimidate] | 3 (index 3: 4 to 10) | 3 (3: 70 to 99%) | 3 (3: 80 to 99%) | 3 (3: 1 to 10%) | 4 (4: 91 to 100%) | 3 (3: 80 to 99%) | 3 (3: 1 to 10%) | 3 (3: 80 to 99%) | 4 (4: 100%) |
| CCC(=COc1ccccc1OC)C(=Nc1ccccc1)Oc1ccccc1 [Compound 313, phenyl 2-ethyl-3-(2-methoxyphenyloxy)-N-phenyl-2-propenimidate] | 3 (index 3: 4 to 10) | 3 (3: 70 to 99%) | 3 (3: 80 to 99%) | 3 (3: 1 to 10%) | 4 (4: 91 to 100%) | 3 (3: 80 to 99%) | 3 (3: 1 to 10%) | 3 (3: 80 to 99%) | 4 (4: 100%) |
| CCC(=COc1ccccc1OC)C(=Nc1ccccc1)Oc1cccc(C)c1 [Compound 314, 3-methylphenyl 2-ethyl-3-(2-methoxyphenyloxy)-N-phenyl-2-propenimidate] | 3 (index 3: 4 to 10) | 3 (3: 70 to 99%) | 3 (3: 80 to 99%) | 3 (3: 1 to 10%) | 4 (4: 91 to 100%) | 3 (3: 80 to 99%) | 3 (3: 1 to 10%) | 3 (3: 80 to 99%) | 4 (4: 100%) |
| CCC(=COc1ccccc1OC)C(=Nc1ccc(C)cc1)Oc1cccc(C)c1 [Compound 316, 3-methylphenyl 2-ethyl-3-(2-methoxyphenyloxy)-N-(4-methylphenyl)-2-propenimidate] | 3 (index 3: 4 to 10) | 3 (3: 70 to 99%) | 3 (3: 80 to 99%) | 3 (3: 1 to 10%) | 4 (4: 91 to 100%) | 3 (3: 80 to 99%) | 3 (3: 1 to 10%) | 3 (3: 80 to 99%) | 4 (4: 100%) |
